No signal at the amounts used counts as a negative. At least one verdict rests on a figure or table, not on a statement of the authors. Protein sequences can lack the tags named with them. Construct, isoform or probe ends are uncertain for at least one entry. A weaker result is weaker than the reference pair of the same experiment.
Biological target: T1, KdpE (Mycobacterium smegmatis) (UniProt A0R399)
T1 sequence (looked up, limits assumed): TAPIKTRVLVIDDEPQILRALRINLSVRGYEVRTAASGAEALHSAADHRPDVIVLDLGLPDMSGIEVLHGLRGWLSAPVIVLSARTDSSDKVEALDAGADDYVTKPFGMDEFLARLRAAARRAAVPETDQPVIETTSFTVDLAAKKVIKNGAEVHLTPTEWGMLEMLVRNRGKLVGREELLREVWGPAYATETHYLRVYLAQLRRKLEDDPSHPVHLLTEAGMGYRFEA
Experiment: EMSA
Conditions: 10 mM Tris pH 7.5 (20 C), 100 mM KCl, 1 mM EDTA, 0.1 mM DTT, 5% glycerol, 0.010 mg/mL BSA, 0.5 mM Na2ATP, 25 C, 1 h, 6% native PAGE in 0.25x TBE, recombinant protein, protein details: 6xHis (pET28a)

[1] = 0.5 mM ATP, 22 bp stated as minimum

CCCGAGGCGCCGGCGCCCGGCCGAGCAGGTGCGTCGGGTGTCGGCAGGCGCGGCAGCCCGCGGAGCAAGCAGGGACATGAGCTTCGTCGAGTGGGTCACCCCTCGAACATCCATCAACCGAGCCATGACGACGAGTGTCCTGGCGGAGTCTTGGCCGCTGCTGTACAAACCTTGACGCCGCACTGACAGTCCGTCGGGAACCGCCTGTGCGCCGGCTTCGAACAAACGGTGTCAAATACGGCCGCCGCACCGTAAAGAAACCATCAAGGCCGCGTTCGCGGTCCTGAACTGGGCAGATCC (double strand) [PkdpF 300-bp probe]
binding result (no ATP, label: 6-FAM, probe letters rebuilt from the primers and the genome): binds more weakly

CCGTAAAGAAACCATCA (double strand) [FPC-17]
binding result [1]: no binding

CCGTAAAGAAACCATCAAGG (double strand) [FPC-20]
binding result [1]: no binding

CGTAAAGAAACCATCAAGGCCGCGTT (double strand) [FPC-26]
binding result (0.5 mM ATP): no binding

GTAAAGAAACCATCAAGGCCGCGT (double strand) [FPC-24]
binding result (0.5 mM ATP): no binding

— paper PMC5401905, “Regulation of Inducible Potassium Transporter KdpFABC by the KdpD/KdpE Two-Component System in Mycobacterium smegmatis”
